Test results from paper PMC4482071.
Results are given in words; binding and its absence hold for the method and conditions named. Some binding calls cover weakened binding; strength is not graded here. Tags and fused reporters may be left off the sequences shown. Blank lines part the entries; values can stand above or below the binder they belong to.

What was measured:
[1] = molecular target: T1, ScRpf2 full length (Saccharomyces cerevisiae) (UniProt P36160); assay: co-purification of co-expressed proteins; method of ref. 22 with a heparin column instead of Resource S and size-exclusion chromatography in 20 mM HEPES-NaOH pH 7.5, 300 mM NaCl, 10 mM MgCl2, 10% glycerol
T1 sequence: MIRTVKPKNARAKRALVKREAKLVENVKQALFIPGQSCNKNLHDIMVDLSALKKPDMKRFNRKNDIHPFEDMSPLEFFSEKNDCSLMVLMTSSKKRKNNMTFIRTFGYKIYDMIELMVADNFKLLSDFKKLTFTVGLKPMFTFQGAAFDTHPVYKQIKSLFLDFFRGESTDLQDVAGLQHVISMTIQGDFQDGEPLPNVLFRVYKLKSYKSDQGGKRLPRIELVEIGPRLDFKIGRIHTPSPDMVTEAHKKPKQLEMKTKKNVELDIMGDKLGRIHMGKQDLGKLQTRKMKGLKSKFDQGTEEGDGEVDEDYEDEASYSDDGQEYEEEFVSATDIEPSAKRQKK

[2] = molecular target: T2, ScRpf2ΔC (ScRpf2 C-terminal deletion mutant; deletion of 90 C-terminal residues, 255–344) (Saccharomyces cerevisiae) (UniProt P36160); assay: as above
T2 sequence: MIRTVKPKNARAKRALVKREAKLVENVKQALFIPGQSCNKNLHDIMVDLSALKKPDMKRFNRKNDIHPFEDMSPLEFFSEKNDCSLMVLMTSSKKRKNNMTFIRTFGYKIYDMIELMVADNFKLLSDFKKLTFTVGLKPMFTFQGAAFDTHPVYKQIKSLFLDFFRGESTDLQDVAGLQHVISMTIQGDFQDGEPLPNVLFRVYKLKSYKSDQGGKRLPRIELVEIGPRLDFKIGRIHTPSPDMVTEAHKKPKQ

[3] = molecular target: T2, ScRpf2ΔC (ScRpf2 C-terminal deletion mutant; deletion of 90 C-terminal residues, 255–344) (Saccharomyces cerevisiae); assay: co-purification of co-expressed proteins; His6-ScRpf2 variants co-expressed with ScRrs1ΔC; HisTrap HP column, then HiLoad 16/60 Superdex 200-pg column

binding [1]: binds
binding [2]: binds
B1: ScRrs1 full length (protein, UniProt Q08746 1-203)
chain: MSAEDYKNLPVTVEKPIPVVYDLGNLAAFDSNVLDKNDLDSSNARREEKIKSLTRDNVQLLINQLLSLPMKTTTESVGGTGGQSSVMTLLQLPDPTTDLPREKPLPKAKAMTKWEKFAAKKGIKPKERAGKMIYDEASGEWVPKWGYKGANKKLDDQWLVEVDDKVKGTDNELIDPRTLNRAERKRLVKKNEKQQRRNMKNAL

binding [1]: binds
binding [2]: binds
binding [3]: binds
B2: ScRrs1ΔC (ScRrs1 C-terminal deletion mutant; deletion of 94 C-terminal residues, 110–293 as printed) (domain or fragment, UniProt Q08746 1-109)
chain: MSAEDYKNLPVTVEKPIPVVYDLGNLAAFDSNVLDKNDLDSSNARREEKIKSLTRDNVQLLINQLLSLPMKTTTESVGGTGGQSSVMTLLQLPDPTTDLPREKPLPKAK
